Experimental data reported in paper PMC9270653.
These are yes or no findings as the source states them, for the method shown. Binding seen in cells or lysates may run through a third protein. Some results given as binding are weak or reduced against the parent protein; the word gives no strength.

Protein sequences, listed by entry. Tags and fused reporters are not part of them.
UniProt Q8K019: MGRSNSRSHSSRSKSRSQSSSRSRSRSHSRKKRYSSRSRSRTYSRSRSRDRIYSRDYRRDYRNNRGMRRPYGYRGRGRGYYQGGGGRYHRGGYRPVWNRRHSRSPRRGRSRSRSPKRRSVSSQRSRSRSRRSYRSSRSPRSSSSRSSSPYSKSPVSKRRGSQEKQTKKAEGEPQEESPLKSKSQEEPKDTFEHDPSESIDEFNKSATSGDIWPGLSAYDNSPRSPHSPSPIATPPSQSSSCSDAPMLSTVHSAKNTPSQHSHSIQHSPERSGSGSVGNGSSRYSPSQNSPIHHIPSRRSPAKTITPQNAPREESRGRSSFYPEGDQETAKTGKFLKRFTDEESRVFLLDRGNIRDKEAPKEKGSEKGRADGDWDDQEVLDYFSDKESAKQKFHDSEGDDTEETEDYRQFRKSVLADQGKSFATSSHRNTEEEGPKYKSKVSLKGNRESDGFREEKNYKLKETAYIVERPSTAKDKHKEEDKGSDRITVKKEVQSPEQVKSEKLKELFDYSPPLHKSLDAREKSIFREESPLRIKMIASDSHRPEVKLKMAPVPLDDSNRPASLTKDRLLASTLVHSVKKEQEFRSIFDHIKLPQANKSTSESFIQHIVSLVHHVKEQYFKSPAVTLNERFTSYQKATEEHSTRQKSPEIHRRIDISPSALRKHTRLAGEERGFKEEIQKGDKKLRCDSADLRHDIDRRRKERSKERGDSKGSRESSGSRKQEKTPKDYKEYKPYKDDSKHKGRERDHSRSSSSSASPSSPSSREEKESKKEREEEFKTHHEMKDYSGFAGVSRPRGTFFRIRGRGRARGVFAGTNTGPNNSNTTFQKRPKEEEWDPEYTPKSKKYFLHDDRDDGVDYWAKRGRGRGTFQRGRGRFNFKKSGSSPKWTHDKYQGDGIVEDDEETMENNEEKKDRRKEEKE

Biological target: T1, Thrap3 (mouse (endogenous in mESCs)) (UniProt Q569Z6)
T1 sequence: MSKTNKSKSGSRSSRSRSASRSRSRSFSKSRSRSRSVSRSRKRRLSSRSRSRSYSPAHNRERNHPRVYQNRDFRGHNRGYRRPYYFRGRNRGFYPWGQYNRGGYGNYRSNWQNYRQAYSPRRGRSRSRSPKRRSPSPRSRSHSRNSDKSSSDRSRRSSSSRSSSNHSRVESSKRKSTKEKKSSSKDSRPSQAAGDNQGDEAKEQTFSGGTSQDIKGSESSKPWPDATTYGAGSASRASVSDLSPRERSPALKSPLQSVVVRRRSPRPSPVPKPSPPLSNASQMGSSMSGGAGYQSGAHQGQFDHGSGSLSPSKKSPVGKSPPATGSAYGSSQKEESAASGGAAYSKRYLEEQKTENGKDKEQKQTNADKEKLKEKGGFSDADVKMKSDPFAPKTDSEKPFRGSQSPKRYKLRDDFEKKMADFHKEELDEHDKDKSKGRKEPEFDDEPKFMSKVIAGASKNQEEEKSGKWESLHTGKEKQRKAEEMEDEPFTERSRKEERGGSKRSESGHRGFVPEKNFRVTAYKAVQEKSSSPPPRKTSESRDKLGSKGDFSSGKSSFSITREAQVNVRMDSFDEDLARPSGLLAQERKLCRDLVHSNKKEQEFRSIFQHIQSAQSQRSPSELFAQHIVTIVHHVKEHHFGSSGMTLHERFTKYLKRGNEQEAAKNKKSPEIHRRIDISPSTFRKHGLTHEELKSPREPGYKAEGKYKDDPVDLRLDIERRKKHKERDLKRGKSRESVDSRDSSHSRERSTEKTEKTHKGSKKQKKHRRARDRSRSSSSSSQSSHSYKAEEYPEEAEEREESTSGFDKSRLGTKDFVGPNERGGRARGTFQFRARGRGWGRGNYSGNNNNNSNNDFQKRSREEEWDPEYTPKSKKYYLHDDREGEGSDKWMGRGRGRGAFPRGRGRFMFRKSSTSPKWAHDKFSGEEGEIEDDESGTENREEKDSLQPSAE
Test: cross-linking; DSSO 1 mM (experiments 1-4) or 5 mM (experiment 5), 1 h at RT, on the anti-Arid1a immunoprecipitate from mESC nuclear lysate while still on the beads; IP at 150 mM NaCl (450 mM in experiment 4); MS3 mass spectrometry, XlinkX, 1% FDR; five experiments

## Bclaf1 (from UniProt Q8K019 1-919)
  binding: binds
